Assay results: patent publication US20200222474A1, “COMPOSITIONS AND METHODS FOR INCREASING PHYTOCHEMICAL BIOAVAILABLITY AND BIOACTIVITY” (North Carolina State University, priority 2017, published 2020)
Further values from the same series stand in other lists.

System: L. acidophilus NCFM
Assay: RNA-seq transcriptional analysis of L. acidophilus NCFM growing on plant glycosides
Format: cell-based, Lactobacillus acidophilus
[1] = LBA1974 Pyruvate oxidase, COG EH
[2] = gene LBA0802 (Hypothetical protein)
[3] = gene LBA0863 (Hypothetical protein)
[4] = gene LBA0878 (Hypothetical protein)
[5] = gene LBA0888 (Hypothetical protein)
[6] = gene LBA0987 (Hypothetical protein)
[7] = gene LBA1019 (Mucus binding protein)
[8] = gene LBA1020 (Mucus binding protein)
[9] = gene LBA1227 (Hypothetical protein)
[10] = gene LBA1370 (Putative bacteriophage-related protein)
[11] = gene LBA1409 (Hypothetical protein LBA1409)
[12] = gene LBA1460 (Mucus binding protein precursor)
[13] = gene LBA1461 (Putative regulator)
[14] = gene LBA1539 (Hypothetical protein)
[15] = gene LBA1608 (Hypothetical protein)
[16] = gene LBA1612 (Fibrinogen-binding protein)
[17] = gene LBA1652 (Mucus binding protein precursor Mub)
[18] = gene LBA1655 (Hypothetical protein)
[19] = gene LBA1686 (Hypothetical protein)
[20] = gene LBA1693 (Hypothetical protein)
[21] = gene LBA1694 (Hypothetical protein)
[22] = gene LBA1709 (Mucus binding protein precursor Mub)
[23] = gene LBA1784 (Hypothetical protein)
[24] = gene LBA1786 (Hypothetical protein)
[25] = gene LBA1791 (Hypothetical protein)
[26] = gene LBA1792 (Hypothetical protein)
[27] = gene LBA1794 (Gassericin K7 B accessory protein)
[28] = gene LBA1797 (Hypothetical protein)
[29] = gene LBA1801 (Hypothetical protein)
[30] = gene LBA1802 (Hypothetical protein)
[31] = gene LBA1803 (Hypothetical protein.)
[32] = gene LBA1804 (Hypothetical protein)
[33] = gene LBA1805 (Hypothetical protein)
[34] = gene without printed locus tag, last line of Table 5 (Hypothetical protein)

O=c1ccc2cc(O[C@@H]3O[C@H](CO)[C@@H](O)[C@H](O)[C@H]3O)c(O)cc2o1 [Esculin]
Log2 differential normalized TPM ratio compared to glucose [1]: 3.6
Log2 differential normalized TPM ratio compared to lactose [1]: 1.2
Transcripts per million (rpm) [1]: 1092.7 rpm
Log2 differential normalized TPM ratio compared to glucose [2]: −0.7
Log2 differential normalized TPM ratio compared to lactose [2]: −1
Transcripts per million (rpm) [2]: 21 rpm
Log2 differential normalized TPM ratio compared to glucose [3]: 2.2
Log2 differential normalized TPM ratio compared to lactose [3]: 1.4
Transcripts per million (rpm) [3]: 240.9 rpm
Log2 differential normalized TPM ratio compared to glucose [4]: 1.4
Log2 differential normalized TPM ratio compared to lactose [4]: 0.2
Transcripts per million (rpm) [4]: 10.1 rpm
Log2 differential normalized TPM ratio compared to glucose [5]: 1.4
Log2 differential normalized TPM ratio compared to lactose [5]: 0.4
Transcripts per million (rpm) [5]: 84.8 rpm
Log2 differential normalized TPM ratio compared to glucose [6]: 2.8
Log2 differential normalized TPM ratio compared to lactose [6]: 2
Transcripts per million (rpm) [6]: 323.4 rpm
Log2 differential normalized TPM ratio compared to glucose [7]: 1.6
Log2 differential normalized TPM ratio compared to lactose [7]: 0.6
Transcripts per million (rpm) [7]: 40.2 rpm
Log2 differential normalized TPM ratio compared to glucose [8]: 2.5
Log2 differential normalized TPM ratio compared to lactose [8]: 2.4
Transcripts per million (rpm) [8]: 864.5 rpm
Log2 differential normalized TPM ratio compared to glucose [9]: 1.9
Log2 differential normalized TPM ratio compared to lactose [9]: 1.4
Transcripts per million (rpm) [9]: 281.3 rpm
Log2 differential normalized TPM ratio compared to glucose [10]: 1.2
Log2 differential normalized TPM ratio compared to lactose [10]: 0.7
Transcripts per million (rpm) [10]: 91.2 rpm
Log2 differential normalized TPM ratio compared to glucose [11]: 1.8
Log2 differential normalized TPM ratio compared to lactose [11]: 1.1
Transcripts per million (rpm) [11]: 16 rpm
Log2 differential normalized TPM ratio compared to glucose [12]: −0.9
Log2 differential normalized TPM ratio compared to lactose [12]: −5.1
Transcripts per million (rpm) [12]: 5.6 rpm
Log2 differential normalized TPM ratio compared to glucose [13]: −1
Log2 differential normalized TPM ratio compared to lactose [13]: −5.9
Transcripts per million (rpm) [13]: 3 rpm
Log2 differential normalized TPM ratio compared to glucose [14]: 1.3
Log2 differential normalized TPM ratio compared to lactose [14]: −1.5
Transcripts per million (rpm) [14]: 59.4 rpm
Log2 differential normalized TPM ratio compared to glucose [15]: 1.5
Log2 differential normalized TPM ratio compared to lactose [15]: 0.8
Transcripts per million (rpm) [15]: 63.4 rpm
Log2 differential normalized TPM ratio compared to glucose (gene LBA1611 (Surface protein)): 2.8
Log2 differential normalized TPM ratio compared to lactose (gene LBA1611 (Surface protein)): 3.3
Transcripts per million (rpm) (gene LBA1611 (Surface protein)): 1213 rpm
Log2 differential normalized TPM ratio compared to glucose [16]: 2.8
Log2 differential normalized TPM ratio compared to lactose [16]: 2.7
Transcripts per million (rpm) [16]: 965.4 rpm
Log2 differential normalized TPM ratio compared to glucose (gene LBA1633 (Surface protein)): 0
Log2 differential normalized TPM ratio compared to lactose (gene LBA1633 (Surface protein)): −1.2
Transcripts per million (rpm) (gene LBA1633 (Surface protein)): 7.8 rpm
Log2 differential normalized TPM ratio compared to glucose [17]: 1.5
Log2 differential normalized TPM ratio compared to lactose [17]: 0.9
Transcripts per million (rpm) [17]: 34.6 rpm
Log2 differential normalized TPM ratio compared to glucose [18]: 0.3
Log2 differential normalized TPM ratio compared to lactose [18]: 0
Transcripts per million (rpm) [18]: 5.3 rpm
Log2 differential normalized TPM ratio compared to glucose [19]: −0.2
Log2 differential normalized TPM ratio compared to lactose [19]: 0.1
Transcripts per million (rpm) [19]: 167 rpm
Log2 differential normalized TPM ratio compared to glucose [20]: 2.2
Log2 differential normalized TPM ratio compared to lactose [20]: 1.2
Transcripts per million (rpm) [20]: 523 rpm
Log2 differential normalized TPM ratio compared to glucose [21]: 3
Log2 differential normalized TPM ratio compared to lactose [21]: 2
Transcripts per million (rpm) [21]: 697.9 rpm
Log2 differential normalized TPM ratio compared to glucose [22]: 3.6
Log2 differential normalized TPM ratio compared to lactose [22]: 3.2
Transcripts per million (rpm) [22]: 33.7 rpm
Log2 differential normalized TPM ratio compared to glucose [23]: 1.7
Log2 differential normalized TPM ratio compared to lactose [23]: −0.3
Transcripts per million (rpm) [23]: 143.4 rpm
Log2 differential normalized TPM ratio compared to glucose [24]: 1.8
Log2 differential normalized TPM ratio compared to lactose [24]: −0.4
Transcripts per million (rpm) [24]: 86.6 rpm
Log2 differential normalized TPM ratio compared to glucose [25]: 1.1
Log2 differential normalized TPM ratio compared to lactose [25]: −1.1
Transcripts per million (rpm) [25]: 39.7 rpm
Log2 differential normalized TPM ratio compared to glucose [26]: 0.8
Log2 differential normalized TPM ratio compared to lactose [26]: −1.6
Transcripts per million (rpm) [26]: 26.1 rpm
Log2 differential normalized TPM ratio compared to glucose [27]: 1.8
Log2 differential normalized TPM ratio compared to lactose [27]: −0.5
Transcripts per million (rpm) [27]: 53.6 rpm
Log2 differential normalized TPM ratio compared to glucose [28]: 2.6
Log2 differential normalized TPM ratio compared to lactose [28]: −2.3
Transcripts per million (rpm) [28]: 816 rpm
Log2 differential normalized TPM ratio compared to glucose [29]: 0.9
Log2 differential normalized TPM ratio compared to lactose [29]: −1.5
Transcripts per million (rpm) [29]: 8.5 rpm
Log2 differential normalized TPM ratio compared to glucose [30]: 1
Log2 differential normalized TPM ratio compared to lactose [30]: −1.6
Transcripts per million (rpm) [30]: 15.5 rpm
Log2 differential normalized TPM ratio compared to glucose [31]: 1
Log2 differential normalized TPM ratio compared to lactose [31]: −2.1
Transcripts per million (rpm) [31]: 26.6 rpm
Log2 differential normalized TPM ratio compared to glucose [32]: 1.6
Log2 differential normalized TPM ratio compared to lactose [32]: −2.2
Transcripts per million (rpm) [32]: 57.2 rpm
Log2 differential normalized TPM ratio compared to glucose [33]: 1.7
Log2 differential normalized TPM ratio compared to lactose [33]: −2.2
Transcripts per million (rpm) [33]: 101.7 rpm
Log2 differential normalized TPM ratio compared to glucose [34]: 2.1
Log2 differential normalized TPM ratio compared to lactose [34]: 1.9
Transcripts per million (rpm) [34]: 85.5 rpm
